For this test, the target named is T1, human viperin (human) (UniProt Q8WXG1).
T1 sequence: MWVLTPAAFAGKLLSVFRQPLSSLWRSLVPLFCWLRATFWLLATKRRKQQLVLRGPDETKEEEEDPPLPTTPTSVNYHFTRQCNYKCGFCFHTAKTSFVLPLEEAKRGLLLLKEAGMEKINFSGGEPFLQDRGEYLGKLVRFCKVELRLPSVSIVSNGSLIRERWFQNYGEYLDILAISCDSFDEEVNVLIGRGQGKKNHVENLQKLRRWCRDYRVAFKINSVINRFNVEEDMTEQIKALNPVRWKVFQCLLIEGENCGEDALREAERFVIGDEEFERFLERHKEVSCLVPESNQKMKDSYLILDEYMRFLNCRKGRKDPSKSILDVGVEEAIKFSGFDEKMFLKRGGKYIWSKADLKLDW
Briefly: co-IP; HEK293-T7 cells transfected with viperin or control plasmid, lysed 48 h later in M2 lysis buffer (50 mM Tris pH 7.4, 50 mM NaCl, 10% glycerol, 1% Triton X-100, 0.5 mM EDTA, 0.5 mM EGTA); lysate incubated 3 h at 4 °C with anti-viperin antibody on protein A/G agarose beads; Western blot with anti-viperin and anti-T7 polymerase antibodies.

Protein sequences, listed by entry. Tags and fused reporters are not part of them.
UniProt P00573: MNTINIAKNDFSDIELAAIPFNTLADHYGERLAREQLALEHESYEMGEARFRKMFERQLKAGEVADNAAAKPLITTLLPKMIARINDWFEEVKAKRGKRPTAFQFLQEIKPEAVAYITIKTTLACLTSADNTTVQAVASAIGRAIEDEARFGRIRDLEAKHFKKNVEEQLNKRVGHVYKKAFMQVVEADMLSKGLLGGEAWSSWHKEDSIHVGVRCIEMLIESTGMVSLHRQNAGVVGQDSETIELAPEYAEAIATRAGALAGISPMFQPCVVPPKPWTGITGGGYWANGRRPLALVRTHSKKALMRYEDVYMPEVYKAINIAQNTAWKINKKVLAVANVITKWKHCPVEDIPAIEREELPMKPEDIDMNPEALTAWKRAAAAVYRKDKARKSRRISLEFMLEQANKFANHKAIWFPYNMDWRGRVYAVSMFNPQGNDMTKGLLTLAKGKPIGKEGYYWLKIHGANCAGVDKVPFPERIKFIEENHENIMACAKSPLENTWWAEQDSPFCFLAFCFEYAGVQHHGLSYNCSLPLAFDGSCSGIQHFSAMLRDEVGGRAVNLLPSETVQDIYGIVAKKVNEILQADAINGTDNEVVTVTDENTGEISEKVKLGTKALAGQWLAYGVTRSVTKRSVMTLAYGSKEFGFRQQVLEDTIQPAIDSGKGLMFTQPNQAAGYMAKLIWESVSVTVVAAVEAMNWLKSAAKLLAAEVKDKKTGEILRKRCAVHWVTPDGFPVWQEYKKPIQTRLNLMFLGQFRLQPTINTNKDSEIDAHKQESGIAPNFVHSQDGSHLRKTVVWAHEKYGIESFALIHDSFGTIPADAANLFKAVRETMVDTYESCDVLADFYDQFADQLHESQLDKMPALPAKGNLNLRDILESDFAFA

These are yes or no findings as the source states them, for the method shown. In cells and extracts the contact can be indirect.

With “Bacteriophage T7 DNA-dependent RNA polymerase (from UniProt P00573 1-883) (enzyme)”, the binding entry is listed as “no binding”.

Values taken from article PMC5970183.
